The exact form of at least one protein or probe is not confirmed.
Tested on: GST-TaPIF4 (Triticum aestivum)
Assay: EMSA
Settings: EMSA: 20 uL, 10% glycerol, 0.5 mM EDTA, 7.5 mM MgCl2, 0.05% NP-40, 50 ng/uL poly(dI-dC); recombinant protein; protein details: N-terminal GST (pGEX-4T-2)

## CTCCCTCCGCTGCACCTGTGATTCTCAAGT (double strand) [TaMBF1c promoter E-box probe]
  binding result: binds

Source: PMC10920922
